{"source": "paper PMC6941357", "about": "“An in vitro toolbox to accelerate anti-malarial drug discovery and development” (Malaria Journal, 2020)"}
{"tested_on": "Caco-2 cell monolayers", "experiment": "not given", "details": "matrix: human plasma; cited from earlier work", "units": {"A–B mass bal": "%", "B–A mass bal": "%"}}
{"smiles": "Clc1ccc2c(N3CCN(CCCN4CCN(c5ccnc6cc(Cl)ccc56)CC4)CC3)ccnc2c1", "note": "[Piperaquine]", "A–B mass bal": 100, "B–A mass bal": 100}
{"smiles": "O=C1C(O)=C([C@H]2CC[C@H](c3ccc(Cl)cc3)CC2)C(=O)c2ccccc21", "note": "[Atovaquone]", "A–B mass bal": 99, "B–A mass bal": 97}
{"smiles": "CC(C)(C)NCc1cc(Nc2ccnc3cc(Cl)ccc23)c2c(c1O)CCCC2", "note": "[Naphthoquine]", "A–B mass bal": 72, "B–A mass bal": 94}
{"tested_on": "Caco-2 cell monolayers", "experiment": "not given", "details": "matrix: pH 7.4 buffer; ref 31 (quinine), 78 (DSM421); cited from earlier work", "units": {"A–B mass bal": "%", "B–A mass bal": "%"}}
{"smiles": "Cc1cc(Nc2ccc(C(F)(F)F)nc2)n2nc(C(C)(F)F)nc2n1", "note": "[DSM421]", "A–B mass bal": 70, "B–A mass bal": 98}
{"tested_on": "Caco-2 cell monolayers", "experiment": "Bidirectional permeability across Caco-2 cell monolayers", "details": "matrix: human plasma", "units": {"A–B mass bal": "%", "B–A mass bal": "%"}}
{"smiles": "Cc1nc(Nc2ncc(N3CCN(C)[C@H](C)C3)c(Nc3cc(C)n(C)n3)n2)cc(C2CC2)c1F", "note": "[MMV253]", "A–B mass bal": 84, "B–A mass bal": 94}
{"smiles": "CN(C)C[c-]1cccc1CNc1ccnc2cc(Cl)ccc12.[Fe+2].c1cc[cH-]c1", "note": "(centres unmarked) [Ferroquine]", "A–B mass bal": 66, "B–A mass bal": 110}
{"smiles": "CC(C)NC(=N)NC(=N)Nc1ccc(Cl)c(Cl)c1", "note": "[Chlorproguanil]", "A–B mass bal": 79, "B–A mass bal": 100}
{"smiles": "COc1cc(N[C@H](C)CCCN)c2nccc(C)c2c1Oc1ccc(Cl)c(Cl)c1", "note": "[NPC1161B]", "A–B mass bal": 76, "B–A mass bal": 97}
{"smiles": "CC(C)(N)CNC(=O)C[C@H]1CC[C@]2(CC1)OO[C@]1(O2)C2CC3CC(C2)CC1C3", "note": "[OZ277, Arterolane]", "A–B mass bal": 67, "B–A mass bal": 100}
{"smiles": "c1cc([C@H]2CC[C@]3(CC2)OO[C@]2(O3)C3CC4CC(C3)CC2C4)ccc1OCCN1CCOCC1", "note": "[OZ439]", "A–B mass bal": 91, "B–A mass bal": 110}
{"smiles": "CCN(CC)CCCNc1ccnc2cc(Cl)ccc12.Cl.Cl", "note": "[AQ-13]", "A–B mass bal": 54, "B–A mass bal": 92}
{"smiles": "CS(=O)(=O)O.FC1CCN(CCOc2ccc(C3CCC4(CC3)OOC3(OO4)C4CC5CC(C4)CC3C5)cc2)CC1", "note": "(centres unmarked) [TDD-E209]", "A–B mass bal": 93, "B–A mass bal": 100}
{"smiles": "CC1(C)c2nc(-c3ccc(F)cc3)c(Nc3ccc(F)cc3)n2CCN1C(=O)CN", "note": "[KAF156]", "A–B mass bal": 86, "B–A mass bal": 96}
{"smiles": "C[C@H]1Cc2c([nH]c3cc(Cl)c(F)cc23)[C@@]2(N1)C(=O)Nc1ccc(Cl)cc12", "note": "[KAE609]", "A–B mass bal": 93, "B–A mass bal": 98}
{"smiles": "CC(C)(C)NCc1cc(C(C)(C)C)cc(-c2cnc(C(F)(F)F)c(F)c2)c1O", "note": "[JPC3210]", "A–B mass bal": 97, "B–A mass bal": 100}
{"smiles": "CC1(C)CC(O)(COc2ccc(C3CCC4(CC3)OOC3(O4)C4CC5CC(C4)CC3C5)cc2)CC(C)(C)N1", "note": "(centres unmarked) [MMV052]", "A–B mass bal": 77, "B–A mass bal": 110}
{"smiles": "COc1ccc2nc3cc(Cl)ccc3c(Nc3cc(CN4CCCC4)c(O)c(CN4CCCC4)c3)c2n1", "note": "[Pyronaridine]", "A–B mass bal": 63, "B–A mass bal": 87}
{"smiles": "COc1cc(C)c2c(Oc3cccc(C(F)(F)F)c3)c(OC)cc(NC(C)CCCN)c2n1", "note": "(centres unmarked) [Tafenoquine]", "A–B mass bal": 79, "B–A mass bal": 110}
{"smiles": "COc1cc2[nH]c(C)c(-c3ccc(Oc4ccc(OC(F)(F)F)cc4)cc3)c(=O)c2cc1Cl", "note": "[ELQ300]", "A–B mass bal": 99, "B–A mass bal": 110}
{"tested_on": "Caco-2 cell monolayers", "experiment": "Bidirectional permeability across Caco-2 cell monolayers", "details": "matrix: pH 7.4 buffer", "units": {"A–B mass bal": "%", "B–A mass bal": "%"}}
{"smiles": "C[C@H]1c2cccc(O)c2C(=O)C2=C(O)[C@]3(O)C(=O)C(C(N)=O)=C(O)[C@@H](N(C)C)[C@@H]3[C@@H](O)[C@@H]21", "note": "[Doxycyclin]", "A–B mass bal": 99, "B–A mass bal": 110}
{"smiles": "CO[C@H]1O[C@@H]2O[C@@]3(C)CC[C@H]4[C@H](C)CC[C@@H]([C@H]1C)[C@@]24OO3", "note": "[Artemether]", "A–B mass bal": 73, "B–A mass bal": 95}
{"smiles": "C[C@H]1[C@H](N2CCS(=O)(=O)CC2)O[C@@H]2O[C@@]3(C)CC[C@H]4[C@H](C)CC[C@@H]1[C@@]24OO3", "note": "[Artemisone]", "A–B mass bal": 98, "B–A mass bal": 99}
{"smiles": "C[C@H]1[C@@H](O)O[C@@H]2O[C@@]3(C)CC[C@H]4[C@H](C)CC[C@@H]1[C@@]24OO3", "note": "[Dihydroartemisinin]", "A–B mass bal": 85, "B–A mass bal": 91}
{"smiles": "Cc1cc(Nc2ccc(S(F)(F)(F)(F)F)cc2)n2nc(C(C)(F)F)nc2n1", "note": "[DSM265]", "A–B mass bal": 83, "B–A mass bal": 93}
{"smiles": "CS(=O)(=O)c1ccc(-c2cnc(N)c(-c3ccc(C(F)(F)F)nc3)c2)cc1", "note": "[MMV048]", "A–B mass bal": 82, "B–A mass bal": 98}
{"smiles": "CC[C@H]1OC(=O)[C@H](C)[C@@H](O[C@H]2C[C@@](C)(OC)[C@@H](O)[C@H](C)O2)[C@H](C)[C@@H](O[C@@H]2O[C@H](C)C[C@H](N(C)C)[C@H]2O)[C@](C)(O)C[C@@H](C)CN(C)[C@H](C)[C@@H](O)[C@]1(C)O", "note": "[Azithromycin]", "A–B mass bal": 98, "B–A mass bal": 87}
{"smiles": "CCc1nc(N)nc(N)c1OCCCOc1ccccc1CCC(=O)O.Cl", "note": "[P218]", "A–B mass bal": 96, "B–A mass bal": 100}
{"smiles": "O=C(NCCN1CCCC1)c1cc(-c2ccc(CN3CCOCC3)cc2)nc2ccc(F)cc12", "note": "[M5717]", "A–B mass bal": 60, "B–A mass bal": 81}
{"smiles": "[H]/N=C(\\N/C(=N/[H])Nc1ccc(Cl)cc1)NC(C)C", "note": "[Proguanil]", "A–B mass bal": 82, "B–A mass bal": 95}
{"smiles": "CCc1nc(N)nc(N)c1-c1ccc(Cl)cc1", "note": "[Pyrimethamine]", "A–B mass bal": 75, "B–A mass bal": 100}
{"smiles": "COc1cc(NC(C)CCCN)c2ncccc2c1", "note": "(centres unmarked) [Primaquine]", "A–B mass bal": 66, "B–A mass bal": 99}
{"smiles": "CC1(C)N=C(N)N=C(N)N1c1ccc(Cl)cc1", "note": "[Cycloguanil]", "A–B mass bal": 100, "B–A mass bal": 100}
{"smiles": "N#Cc1cc(NC(=O)[C@H]2c3ccccc3C(=O)N(CC(F)(F)F)[C@@H]2c2cccnc2)ccc1F", "note": "[SJ733]", "A–B mass bal": 93, "B–A mass bal": 99}
{"smiles": "COc1ncnc(NS(=O)(=O)c2ccc(N)cc2)c1OC", "note": "[Sulfadoxine]", "A–B mass bal": 93, "B–A mass bal": 110}
